# Assay results reported in US20250332300A1 (priority 2024, published 2025).
# Columns and labels:
# [1] = general procedure: Fmoc solid-phase peptide synthesis; Rink amide resin R1; DIC/Oxyma Pure; HATU; PyAOP; DIPEA as base; conditions: whole synthesis, scale 0.300 mmol, TFA salt
# [2] = general procedure: Fmoc solid-phase peptide synthesis; Fmoc-Rink Amide ProTide resin, Fmoc-Rink Amide AM resin, Fmoc-Sieber resin or Fmoc-Lys(Boc)-Wang resin; DIC/Oxyma Pure; HATU; PyAOP; DIPEA as base; conditions: for isolated mass / isolated yield: whole synthesis; for step yield: late stage modification step
substance,measurement,setting,value
NAc-propargyl-Gly-SAR14-Lys(Alloc)-SAR14-propargyl-Gly-NH2,isolated mass,[1],151 mg
same,isolated yield,[1],20.5% yield
"(3S,6S,9S,12S,15S,18S,21S,24S,27S)-9-((1H-indol-3-yl)methyl)-27-acetamido-15-(4-acetamidobutyl)-N—((S)-1-(((S)-1-amino-6-azido-1-oxohexan-2-yl)amino)-3-(4-fluorophenyl)-1-oxopropan-2-yl)-6-cyclopropyl-12-((5-hydroxy-1H-indol-3-yl)methyl)-24-(4-hydroxybenzyl)-21-(hydroxymethyl)-N,4,16,19-tetramethyl-5,8,11,14,17,20,23,26,31-nonaoxo-18-phenethyl-1,4,7,10,13,16,19,22,25-nonaazacyclohentriacontane-3-carboxamide",cyclisation yield,"[2]; cyclisation step, on A40-1, TFA salt",51% yield
"2,2′,2″-(10-(2-(((S)-5-((S)-2-((3S,6 S,9S,12S,15S,18S,21S,24S,27S)-9-((1H-indol-3-yl)methyl)-27-acetamido-6-cyclopropyl-12-((5-hydroxy-1H-indol-3-yl)methyl)-15-(4-(2-hydroxyacetamido)butyl)-24-(4-hydroxybenzyl)-21-(hydroxymethyl)-N,4,16,19-tetramethyl-5,8,11,14,17,20,23,26,31-nonaoxo-18-phenethyl-1,4,7,10,13,16,19,22,25-nonaazacyclohentriacontane-3-carboxamido)-3-(4-fluorophenyl)propanamido)-6-amino-6-oxohexyl)amino)-2-oxoethyl)-1,4,7,10-tetraazacyclododecane-1,4,7-triyl)triacetic acid TFA Salt",isolated mass,"[2]; scale 0.375 mmol, TFA salt",70.1 mg
same,isolated yield,"[2]; scale 0.375 mmol, TFA salt",10.3% yield
"3-(((3S,6S,9S,12S,15S,18S,21S,24S,27S)-9-((1H-indol-3-yl)methyl)-15-(4-acetamidobutyl)-6-cyclopropyl-3-(((S)-1-(((S)-1,6-diamino-1-oxohexan-2-yl)amino)-3-(4-fluorophenyl)-1-oxopropan-2-yl)(methyl)carbamoyl)-12-((5-hydroxy-1H-indol-3-yl)methyl)-24-(4-hydroxybenzyl)-21-(hydroxymethyl)-4,16,19-trimethyl-5,8,11,14,17,20,23,26,31-nonaoxo-18-phenethyl-1,4,7,10,13,16,19,22,25-nonaazacyclohentriacontan-27-yl)amino)-3-oxopropanoic acid TFA salt",step yield,[2]; TFA salt,39% yield
"2-((1E,3E)-5-((E)-1-(6-(((S)-5-((S)-2-((3S,6S,9S,12S,15S,18S,21S,24S,27S)-9-((1H-indol-3-yl)methyl)-27-acetamido-15-(4-acetamidobutyl)-6-cyclopropyl-12-((5-hydroxy-1H-indol-3-yl)methyl)-24-(4-hydroxybenzyl)-21-(hydroxymethyl)-N,4,16,19-tetramethyl-5,8,11,14,17,20,23,26,31-nonaoxo-18-phenethyl-1,4,7,10,13,16,19,22,25-nonaazacyclohentriacontane-3-carboxamido)-3-(4-fluorophenyl)propanamido)-6-amino-6-oxohexyl)amino)-6-oxohexyl)-3,3-dimethyl-5-sulfonatoindolin-2-ylidene)penta-1,3-dien-1-yl)-1-ethyl-3,3-dimethyl-3H-indol-1-ium-5-sulfonate",conjugation yield,"[2]; conjugation step, TFA salt",66% yield
"(3S,6S,9S,12S,15S,18S,21S,24S,27S)-9-((1H-indol-3-yl)methyl)-27-acetamido-15-(4-acetamidobutyl)-N—((S)-1-(((S)-1-amino-6-(6-fluoronicotinamido)-1-oxohexan-2-yl)amino)-3-(4-fluorophenyl)-1-oxopropan-2-yl)-6-cyclopropyl-12-((5-hydroxy-1H-indol-3-yl)methyl)-24-(4-hydroxybenzyl)-21-(hydroxymethyl)-N,4,16,19-tetramethyl-5,8,11,14,17,20,23,26,31-nonaoxo-18-phenethyl-1,4,7,10,13,16,19,22,25-nonaazacyclohentriacontane-3-carboxamide TFA salt",step yield,[2]; TFA salt,90% yield
"(3S,6S,9S,12S,15S,18S,21S,24S,27S)-9-((1H-indol-3-yl)methyl)-27-acetamido-15-(4-acetamidobutyl)-N-((2S,5S)-5-carbamoyl-1-(4-fluorophenyl)-3,11,45-trioxo-49-((3aS,4S,6aR)-2-oxohexahydro-1H-thieno[3,4-d]imidazol-4-yl)-14,17,20,23,26,29,32,35,38,41-decaoxa-4,10,44-triazanonatetracontan-2-yl)-12-((5-hydroxy-1H-indol-3-yl)methyl)-24-(4-hydroxybenzyl)-6-((S)-1-hydroxyethyl)-21-(hydroxymethyl)-N,4,16,19-tetramethyl-5,8,11,14,17,20,23,26,30-nonaoxo-18-phenethyl-1,4,7,10,13,16,19,22,25-nonaazacyclotriacontane-3-carboxamide",isolated mass,"[2]; scale 125 μmol, TFA salt",16.17 mg
same,isolated yield,"[2]; scale 125 μmol, TFA salt",5.1% yield
